PubChem BioAssay AID1259261 | Sanger Institute | 2017

Purpose: 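siRNA screen across the kinome for kinases that are essential and partners synergising with drugs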 (primary screen)
Cells: HCC2998 human colorectal cancer cells
Reagents: siRNA pool against human genes
Conditions: anchor drugs BYL719 1 µM, cetuximab 5 µg/ml or trametinib 10 nM, each compared with DMSO vehicle
Measured: 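Viability as fraction of non-targeting control plus robust z-score without drug; synergy scores compare knock-down plus drug against each alone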
Reading the numbers: viability z-score, knock-down alone: higher = more viable cells than controls; viability fraction, knock-down alone: higher = more viable cells
Active means: 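Essential when the siRNA-alone viability robust z-score is below -3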
Calls: active = essential; inactive = no change
The deposit covers 794 reagents; below is a part drawn at random. In the full data, 10 (1.3%) were called active. 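Calls reflect knock-down alone without drug; synergy scores with BYL719, cetuximab or trametinib do not affect calls.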 Reagents against one gene are numbered here. Viability is capped at 1. Not all columns of the deposit are shown. Reagent sequences are not shown. Not given: the amount of reagent, the time to read-out.

{"Gene":"FER (FER tyrosine kinase)","reagent no.":1,"viability z-score, knock-down alone":1.2,"viability fraction, knock-down alone":0.999,"call":"inactive"}
{"Gene":"TPK1 (thiamin pyrophosphokinase 1)","reagent no.":1,"viability z-score, knock-down alone":-0.182,"viability fraction, knock-down alone":0.826,"call":"inactive"}
{"Gene":"DGKQ (diacylglycerol kinase theta)","reagent no.":1,"viability z-score, knock-down alone":-0.0352,"viability fraction, knock-down alone":0.844,"call":"inactive"}
{"Gene":"CEP290 (centrosomal protein 290)","reagent no.":1,"viability z-score, knock-down alone":0.194,"viability fraction, knock-down alone":0.873,"call":"inactive"}
{"Gene":"PHKB (phosphorylase kinase regulatory subunit beta)","reagent no.":1,"viability z-score, knock-down alone":-1.45,"viability fraction, knock-down alone":0.667,"call":"inactive"}
{"Gene":"GUCY2C (guanylate cyclase 2C)","reagent no.":1,"viability z-score, knock-down alone":1.15,"viability fraction, knock-down alone":0.993,"call":"inactive"}
{"Gene":"MVK (mevalonate kinase)","reagent no.":1,"viability z-score, knock-down alone":0.324,"viability fraction, knock-down alone":0.889,"call":"inactive"}
{"Gene":"PTK2 (protein tyrosine kinase 2)","reagent no.":1,"viability z-score, knock-down alone":-1.17,"viability fraction, knock-down alone":0.702,"call":"inactive"}
{"Gene":"MYO3A (myosin IIIA)","reagent no.":1,"viability z-score, knock-down alone":1.21,"viability fraction, knock-down alone":1,"call":"inactive"}
{"Gene":"MAP2K3 (mitogen-activated protein kinase kinase 3)","reagent no.":1,"viability z-score, knock-down alone":-0.692,"viability fraction, knock-down alone":0.762,"call":"inactive"}
{"Gene":"RPS6KA5 (ribosomal protein S6 kinase A5)","reagent no.":1,"viability z-score, knock-down alone":-0.824,"viability fraction, knock-down alone":0.746,"call":"inactive"}
{"Gene":"RFK (riboflavin kinase)","reagent no.":1,"viability z-score, knock-down alone":-1.2,"viability fraction, knock-down alone":0.698,"call":"inactive"}
{"Gene":"HUNK (hormonally up-regulated Neu-associated kinase)","reagent no.":1,"viability z-score, knock-down alone":-3.2,"viability fraction, knock-down alone":0.448,"call":"active"}
{"Gene":"CDADC1 (cytidine and dCMP deaminase domain containing 1)","reagent no.":1,"viability z-score, knock-down alone":0.94,"viability fraction, knock-down alone":0.967,"call":"inactive"}
{"Gene":"PCK2 (phosphoenolpyruvate carboxykinase 2, mitochondrial)","reagent no.":1,"viability z-score, knock-down alone":0.431,"viability fraction, knock-down alone":0.903,"call":"inactive"}
{"Gene":"IRAK1 (interleukin 1 receptor associated kinase 1)","reagent no.":1,"viability z-score, knock-down alone":-0.205,"viability fraction, knock-down alone":0.823,"call":"inactive"}
{"Gene":"STK17B (serine/threonine kinase 17b)","reagent no.":1,"viability z-score, knock-down alone":0.000565,"viability fraction, knock-down alone":0.849,"call":"inactive"}
{"Gene":"GSK3A (glycogen synthase kinase 3 alpha)","reagent no.":1,"viability z-score, knock-down alone":-0.847,"viability fraction, knock-down alone":0.743,"call":"inactive"}
{"Gene":"DGKB (diacylglycerol kinase beta)","reagent no.":1,"viability z-score, knock-down alone":-1.93,"viability fraction, knock-down alone":0.607,"call":"inactive"}
{"Gene":"TEX14 (testis expressed 14, intercellular bridge forming factor)","reagent no.":1,"viability z-score, knock-down alone":0.276,"viability fraction, knock-down alone":0.884,"call":"inactive"}
{"Gene":"FGFRL1 (fibroblast growth factor receptor like 1)","reagent no.":1,"viability z-score, knock-down alone":-0.583,"viability fraction, knock-down alone":0.776,"call":"inactive"}
{"Gene":"CASK (calcium/calmodulin dependent serine protein kinase)","reagent no.":1,"viability z-score, knock-down alone":0.383,"viability fraction, knock-down alone":0.897,"call":"inactive"}
{"Gene":"N4BP2 (NEDD4 binding protein 2)","reagent no.":1,"viability z-score, knock-down alone":-0.884,"viability fraction, knock-down alone":0.738,"call":"inactive"}
{"Gene":"STK32C (serine/threonine kinase 32C)","reagent no.":1,"viability z-score, knock-down alone":1.17,"viability fraction, knock-down alone":0.996,"call":"inactive"}
{"Gene":"MAST3 (microtubule associated serine/threonine kinase 3)","reagent no.":1,"viability z-score, knock-down alone":-0.672,"viability fraction, knock-down alone":0.765,"call":"inactive"}
{"Gene":"MAPK14 (mitogen-activated protein kinase 14)","reagent no.":1,"viability z-score, knock-down alone":-0.114,"viability fraction, knock-down alone":0.835,"call":"inactive"}
{"Gene":"MAPK13 (mitogen-activated protein kinase 13)","reagent no.":1,"viability z-score, knock-down alone":1.1,"viability fraction, knock-down alone":0.987,"call":"inactive"}
{"Gene":"DTYMK (deoxythymidylate kinase)","reagent no.":1,"viability z-score, knock-down alone":0.319,"viability fraction, knock-down alone":0.889,"call":"inactive"}
{"Gene":"CLK2 (CDC like kinase 2)","reagent no.":1,"viability z-score, knock-down alone":-0.00445,"viability fraction, knock-down alone":0.848,"call":"inactive"}
{"Gene":"NTRK2 (neurotrophic receptor tyrosine kinase 2)","reagent no.":1,"viability z-score, knock-down alone":-0.146,"viability fraction, knock-down alone":0.831,"call":"inactive"}
{"Gene":"ILK (integrin linked kinase)","reagent no.":1,"viability z-score, knock-down alone":0.699,"viability fraction, knock-down alone":0.937,"call":"inactive"}
{"Gene":"ILK (integrin linked kinase)","reagent no.":2,"viability z-score, knock-down alone":1.21,"viability fraction, knock-down alone":1,"call":"inactive"}
{"Gene":"APC (APC regulator of Wnt signaling pathway)","reagent no.":1,"viability z-score, knock-down alone":0.528,"viability fraction, knock-down alone":0.915,"call":"inactive"}
{"Gene":"MAPKAPK3 (MAPK activated protein kinase 3)","reagent no.":1,"viability z-score, knock-down alone":-0.886,"viability fraction, knock-down alone":0.738,"call":"inactive"}
{"Gene":"SRGAP3 (SLIT-ROBO Rho GTPase activating protein 3)","reagent no.":1,"viability z-score, knock-down alone":0.318,"viability fraction, knock-down alone":0.889,"call":"inactive"}
{"Gene":"DMPK (DM1 protein kinase)","reagent no.":1,"viability z-score, knock-down alone":1.09,"viability fraction, knock-down alone":0.985,"call":"inactive"}

Single entries from the entries so far.
PCK2 (phosphoenolpyruvate carboxykinase 2, mitochondrial), viability fraction, knock-down alone → 0.903
Value of FGFRL1 (fibroblast growth factor receptor like 1) under “call”: inactive
